Measured values published in article PMC4231747.
No constants are given. Whether binding was seen depends on the method and setting. Binding seen in cells or lysates may run through a third protein. Here binding means that the protein was enriched with, or labelled near, the bait; the list need not be complete.

Sequences of proteins named here, by UniProt entry; tags and fusion partners are left off.
UniProt P40160: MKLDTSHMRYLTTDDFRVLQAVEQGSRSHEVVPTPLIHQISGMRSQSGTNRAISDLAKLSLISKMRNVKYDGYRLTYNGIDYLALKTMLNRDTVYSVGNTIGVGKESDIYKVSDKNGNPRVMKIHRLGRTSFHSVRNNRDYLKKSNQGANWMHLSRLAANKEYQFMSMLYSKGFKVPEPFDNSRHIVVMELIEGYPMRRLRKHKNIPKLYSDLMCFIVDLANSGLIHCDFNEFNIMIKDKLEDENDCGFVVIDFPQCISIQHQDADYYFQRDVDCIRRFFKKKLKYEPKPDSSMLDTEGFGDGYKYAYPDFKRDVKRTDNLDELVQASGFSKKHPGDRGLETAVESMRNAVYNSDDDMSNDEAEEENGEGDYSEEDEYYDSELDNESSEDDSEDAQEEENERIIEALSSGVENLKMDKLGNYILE

Experiments:
Assay in all cases: affinity purification with mass spectrometry; pre-ribosomal particles purified from yeast by the tagged bait (Nob1-HTP, Pno1-TAP, Rio2-TAP, Rio1-TAP), fractionated on a Superose 6 gel filtration column; elution fractions 1-5 digested and analysed by LC-MS/MS
Nob1-HTP (S. cerevisiae) = biological target: T1, Nob1-HTP (S. cerevisiae) (UniProt Q08444)
T1 sequence: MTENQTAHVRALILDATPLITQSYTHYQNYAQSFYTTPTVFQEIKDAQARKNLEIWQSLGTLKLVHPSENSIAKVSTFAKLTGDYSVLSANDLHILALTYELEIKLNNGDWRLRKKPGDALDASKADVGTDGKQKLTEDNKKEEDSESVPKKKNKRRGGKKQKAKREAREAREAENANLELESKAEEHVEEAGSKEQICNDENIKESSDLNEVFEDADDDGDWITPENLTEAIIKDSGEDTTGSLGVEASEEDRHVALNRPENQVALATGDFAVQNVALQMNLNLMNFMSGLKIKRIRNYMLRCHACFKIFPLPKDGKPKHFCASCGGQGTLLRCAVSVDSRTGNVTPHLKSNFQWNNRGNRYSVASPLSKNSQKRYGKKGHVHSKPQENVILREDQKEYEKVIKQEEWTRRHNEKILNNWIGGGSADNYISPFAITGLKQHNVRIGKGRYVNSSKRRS

Pno1-TAP (S. cerevisiae) = biological target: T2, Pno1-TAP (S. cerevisiae) (UniProt Q99216)
T2 sequence: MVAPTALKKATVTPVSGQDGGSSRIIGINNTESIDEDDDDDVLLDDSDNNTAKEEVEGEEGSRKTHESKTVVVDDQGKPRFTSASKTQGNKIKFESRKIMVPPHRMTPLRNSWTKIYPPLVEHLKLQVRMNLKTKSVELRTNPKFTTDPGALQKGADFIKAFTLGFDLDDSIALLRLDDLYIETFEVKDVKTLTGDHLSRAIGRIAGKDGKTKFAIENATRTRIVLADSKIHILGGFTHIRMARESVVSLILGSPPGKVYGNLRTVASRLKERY

Rio2-TAP (S. cerevisiae) = Rio2-TAP (S. cerevisiae) (UniProt P40160)
[1] = biological target: T3, Rio1-TAP (S. cerevisiae), Q12196; settings: remark: other sources report otherwise
T3 chain: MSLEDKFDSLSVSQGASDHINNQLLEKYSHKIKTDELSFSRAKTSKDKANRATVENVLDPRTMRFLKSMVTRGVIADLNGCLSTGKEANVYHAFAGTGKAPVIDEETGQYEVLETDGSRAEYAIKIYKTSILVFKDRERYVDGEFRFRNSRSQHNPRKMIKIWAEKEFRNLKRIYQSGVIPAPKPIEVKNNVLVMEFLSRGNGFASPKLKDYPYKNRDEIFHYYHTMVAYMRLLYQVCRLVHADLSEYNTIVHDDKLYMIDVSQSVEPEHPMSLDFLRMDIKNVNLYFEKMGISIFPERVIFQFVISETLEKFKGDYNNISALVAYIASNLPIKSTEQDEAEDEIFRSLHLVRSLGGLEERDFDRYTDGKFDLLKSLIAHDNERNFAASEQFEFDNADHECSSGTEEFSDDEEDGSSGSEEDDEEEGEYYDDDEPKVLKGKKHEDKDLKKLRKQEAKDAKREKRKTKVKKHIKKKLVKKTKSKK

[2] = biological target: T4, Nob1-HTP (S. cerevisiae), Q08444; settings: remark: other sources report otherwise
T4 chain: T1 sequence

[3] = biological target: T5, Pno1-TAP (S. cerevisiae), Q99216; settings: remark: other sources report otherwise
T5 chain: T2 sequence

B1: Enp1 (protein, UniProt P38333 1-483)
chain: MARASSTKARKQRHDPLLKDLDAAQGTLKKINKKKLAQNDAANHDAANEEDGYIDSKASRKILQLAKEQQDEIEGEELAESERNKQFEARFTTMSYDDEDEDEDEDEEAFGEDISDFEPEGDYKEEEEIVEIDEEDAAMFEQYFKKSDDFNSLSGSYNLADKIMASIREKESQVEDMQDDEPLANEQNTSRGNISSGLKSGEGVALPEKVIKAYTTVGSILKTWTHGKLPKLFKVIPSLRNWQDVIYVTNPEEWSPHVVYEATKLFVSNLTAKESQKFINLILLERFRDNIETSEDHSLNYHIYRAVKKSLYKPSAFFKGFLFPLVETGCNVREATIAGSVLAKVSVPALHSSAALSYLLRLPFSPPTTVFIKILLDKKYALPYQTVDDCVYYFMRFRILDDGSNGEDATRVLPVIWHKAFLTFAQRYKNDITQDQRDFLLETVRQRGHKDIGPEIRRELLAGASREFVDPQEANDDLMIDVN
binding (Nob1-HTP (S. cerevisiae)): binds | binding (Pno1-TAP (S. cerevisiae)): binds | binding (Rio2-TAP (S. cerevisiae)): binds

B2: Tsr1 (protein, UniProt Q07381 1-788)
chain: MAGHSHRSSLKNGHKSYKSKHASKGALKRLYKGKVEKEPVGTGKPDKQVSKLQRKNKAKQLRAQRILDSIENRKLFEGKNGAAKIITIVPLVNDLDPLDILYKLLKCADDEGIMVQEVDSKRIFNVHIKKFKSNLKIIIPDMTNFLNILDCAKVADFVVFGLSGVQEVDEEFGEQIIRALELQGIASYIGVISNLSAVHEKEKFQLDVKQSLESYFKHFFPSEERVYNLEKNSDALNVLRTLCQRLPRSINWRDNRGYVVADFVDFVETSPDSGDLVIEGTVRGIGFNANRLVHIPDFGDFQLNKIEKISESSQKRKIIKEKATDSLSLELDLQTVFESNMNRDTLDEYAPEGTEDWSDYDEDFEYDGLTTARYDDHGFLPGREQTSKKAAVPKGTSDYQAKWYLDDVIDANEEEEAEQTNGKDETMMEIDDEMMVEQDNEEVAGDEEYDIEDNEGFEELSPEEEERQLREFRDMEKEDREFPDEIELEPSESAIERLKRYRGLKNLYNCDWQVDEKDPSSPAEWKRLLRIGNYKNTKNRIIKETKNEAQAIAGDRIRMFIRFPKFLLEKIQDPKQLLFAVYGLLLHEHKNAVVNFSLQRWEQYDKPVPSQEPIVVQYGVRRYTIQPLFSQGSNSPNNVHKYERFLHPDTVSVATCIAPVDFTQSPAIFFKPSPTDAKNIELIGHGTFLNADHSRILAKRAILTGHPFRFHKTVVTVRYMFFRPEDVEWFKSIPLFTKSGRSGFIKESLGTHGYFKATFDGKLSAQDVVAMSLYKRMWPMPSLPWNGM
binding (Pno1-TAP (S. cerevisiae)): binds | binding (Rio2-TAP (S. cerevisiae)): binds

B3: endogenous Nob1, Q08444 1-459 (enzyme)
chain: T1 sequence
binding [1]: binds

B4: Pno1, Q99216 1-274 (protein)
chain: T2 sequence
binding [1]: binds

B5: Tsr1, Q07381 1-788 (protein)
chain: B2 chain
binding [2]: binds

B6: Dim1, P41819 1-318 (protein)
chain: MGKAAKKKYSGATSSKQVSAEKHLSSVFKFNTDLGQHILKNPLVAQGIVDKAQIRPSDVVLEVGPGTGNLTVRILEQAKNVVAVEMDPRMAAELTKRVRGTPVEKKLEIMLGDFMKTELPYFDICISNTPYQISSPLVFKLINQPRPPRVSILMFQREFALRLLARPGDSLYCRLSANVQMWANVTHIMKVGKNNFRPPPQVESSVVRLEIKNPRPQVDYNEWDGLLRIVFVRKNRTISAGFKSTTVMDILEKNYKTFLAMNNEMVDDTKGSMHDVVKEKIDTVLKETDLGDKRAGKCDQNDFLRLLYAFHQVGIHFS
binding [3]: binds

B7: Ltv1 (protein, UniProt P34078 1-463)
chain: MSKKFSSKNSQRYVVVHRPHDDPSFYDTDASAHVLVPVSNPNKTSPEADLRKKDVSSTKPKGRRAHVGEAALYGINFDDSEYDYTQHLKPIGLDPENSIFIASKGNEQKVEKKNIEDLFIEPKYRRDEIEKDDALPVFQRGMAKPEYLLHQQDTTDEIRGFKPDMNPALREVLEALEDEAYVVNDDVVVEDISKKTQLQGDNYGEEEKEDDIFAQLLGSGEAKDEDEFEDEFDEWDIDNVENFEDENYVKEMAQFDNIENLEDLENIDYQADVRRFQKDNSILEKHNSDDEFSNAGLDSVNPSEEEDVLGELPSIQDKSKTGKKKRKSRQKKGAMSDVSGFSMSSSAIARTETMTVLDDQYDQIINGYENYEEELEEDEEQNYQPFDMSAERSDFESMLDDFLDNYELESGGRKLAKKDKEIERLKEAADEVSKGKLSQRRNRERQEKKKLEKVTNTLSSLKF
binding (Pno1-TAP (S. cerevisiae)): binds
